# From article doi:10.1101/2024.03.15.585069
# T1: GSRhino-TAP-tagged ICU11 (INCURVATA11) (Arabidopsis thaliana) (UniProt Q3ED68)
# T1 sequence: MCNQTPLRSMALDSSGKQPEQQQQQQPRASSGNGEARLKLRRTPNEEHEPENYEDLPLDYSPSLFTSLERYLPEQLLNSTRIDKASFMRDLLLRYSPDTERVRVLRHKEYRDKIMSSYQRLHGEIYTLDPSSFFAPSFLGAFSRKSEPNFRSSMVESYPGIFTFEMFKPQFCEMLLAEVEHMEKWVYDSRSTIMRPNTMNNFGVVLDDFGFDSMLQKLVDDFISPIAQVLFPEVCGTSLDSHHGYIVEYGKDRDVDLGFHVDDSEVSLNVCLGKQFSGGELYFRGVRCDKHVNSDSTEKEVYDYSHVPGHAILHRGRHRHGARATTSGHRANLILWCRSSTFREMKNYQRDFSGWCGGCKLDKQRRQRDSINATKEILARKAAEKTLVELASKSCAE
# T2: GSRhino-TAP-tagged CP2 (CUPULIFORMIS2) (Arabidopsis thaliana) (UniProt P0DO23)
# T2 sequence: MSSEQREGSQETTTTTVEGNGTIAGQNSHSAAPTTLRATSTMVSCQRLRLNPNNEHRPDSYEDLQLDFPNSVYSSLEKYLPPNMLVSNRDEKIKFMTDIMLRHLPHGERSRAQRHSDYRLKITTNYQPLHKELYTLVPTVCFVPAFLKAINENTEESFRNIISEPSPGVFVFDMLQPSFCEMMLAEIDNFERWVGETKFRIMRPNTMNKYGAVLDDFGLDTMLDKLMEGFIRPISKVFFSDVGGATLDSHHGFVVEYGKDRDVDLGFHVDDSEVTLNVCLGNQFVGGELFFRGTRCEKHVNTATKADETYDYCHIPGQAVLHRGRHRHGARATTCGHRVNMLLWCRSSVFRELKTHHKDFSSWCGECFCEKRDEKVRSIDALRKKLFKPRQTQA
# Tests used:
# [1] = molecular target: T1, GSRhino-TAP-tagged ICU11 (INCURVATA11) (Arabidopsis thaliana); experiment: affinity purification with mass spectrometry
# [2] = molecular target: T2, GSRhino-TAP-tagged CP2 (CUPULIFORMIS2) (Arabidopsis thaliana); experiment: affinity purification with mass spectrometry
binding [1],binding [2],Binder
binds,–,"SWINGER (SWN), endogenous (protein, UniProt Q9ZSM8 1-856) MVTDDSNSSGRIKSHVDDDDDGEEEEDRLEGLENRLSELKRKIQGERVRSIKEKFEANRKKVDAHVSPFSSAASSRATAEDNGNSNMLSSRMRMPLCKLNGFSHGVGDRDYVPTKDVISASVKLPIAERIPPYTTWIFLDRNQRMAEDQSVVGRRQIYYEQHGGETLICSDSEEEPEPEEEKREFSEGEDSIIWLIGQEYGMGEEVQDALCQLLSVDASDILERYNELKLKDKQNTEEFSNSGFKLGISLEKGLGAALDSFDNLFCRRCLVFDCRLHGCSQPLISASEKQPYWSDYEGDRKPCSKHCYLQLKAVREVPETCSNFASKAEEKASEEECSKAVSSDVPHAAASGVSLQVEKTDIGIKNVDSSSGVEQEHGIRGKREVPILKDSNDLPNLSNKKQKTAASDTKMSFVNSVPSLDQALDSTKGDQGGTTDNKVNRDSEADAKEVGEPIPDNSVHDGGSSICQPHHGSGNGAIIIAEMSETSRPSTEWNPIEKDLYLKGVEIFGRNSCLIARNLLSGLKTCLDVSNYMRENEVSVFRRSSTPNLLLDDGRTDPGNDNDEVPPRTRLFRRKGKTRKLKYSTKSAGHPSVWKRIAGGKNQSCKQYTPCGCLSMCGKDCPCLTNETCCEKYCGCSKSCKNRFRGCHCAKSQCRSRQCPCFAAGRECDPDVCRNCWVSCGDGSLGEAPRRGEGQCGNMRLLLRQQQRILLGKSDVAGWGAFLKNSVSKNEYLGEYTGELISHHEADKRGKIYDRANSSFLFDLNDQYVLDAQRKGDKLKFANHSAKPNCYAKVMFVAGDHRVGIFANERIEASEELFYDYRYGPDQAPVWARKPEGSKKDDSAITHRRARKHQSH"
binds,–,"EMBRYONIC FLOWER 2 (EMF2) (protein, UniProt Q8L6Y4 1-631) MPGIPLVSRETSSCSRSTEQMCHEDSRLRISEEEEIAAEESLAAYCKPVELYNIIQRRAIRNPLFLQRCLHYKIEAKHKRRIQMTVFLSGAIDAGVQTQKLFPLYILLARLVSPKPVAEYSAVYRFSRACILTGGLGVDGVSQAQANFLLPDMNRLALEAKSGSLAILFISFAGAQNSQFGIDSGKIHSGNIGGHCLWSKIPLQSLYASWQKSPNMDLGQRVDTVSLVEMQPCFIKLKSMSEEKCVSIQVPSNPLTSSSPQQVQVTISAEEVGSTEKSPYSSFSYNDISSSSLLQIIRLRTGNVVFNYRYYNNKLQKTEVTEDFSCPFCLVKCASFKGLRYHLPSTHDLLNFEFWVTEEFQAVNVSLKTETMISKVNEDDVDPKQQTFFFSSKKFRRRRQKSQVRSSRQGPHLGLGCEVLDKTDDAHSVRSEKSRIPPGKHYERIGGAESGQRVPPGTSPADVQSCGDPDYVQSIAGSTMLQFAKTRKISIERSDLRNRSLLQKRQFFHSHRAQPMALEQVLSDRDSEDEVDDDVADFEDRRMLDDFVDVTKDEKQMMHMWNSFVRKQRVLADGHIPWACEAFSRLHGPIMVRTPHLIWCWRVFMVKLWNHGLLDARTMNNCNTFLEQLQI"
binds,–,"EMBRYONIC FLOWER 1 (EMF1) (protein, UniProt Q9LYD9 1-1096) MGSSIKINSISIDLAGAANEIDMVKCDHFSMRGFVAETRERDLRKCWPFSEESVSLVDQQSYTLPTLSVPKFRWWHCMSCIKDIDAHGPKDCGLHSNSKAIGNSSVIESKSKFNSLTIIDHEKEKKTDIADNAIEEKVGVNCENDDQTATTFLKKARGRPMGASNVRSKSRKLVSPEQVGNNRSKEKLNKPSMDISSWKEKQNVDQAVTTFGSSEIAGVVEDTPPKATKNHKGIRGLMECDNGSSESINLAMSGLQRRKSRKVRLLSELLGNTKTSGGSNIRKEESALKKESVRGRKRKLLPENNYVSRILSTMGATSENASKSCDSDQGNSESTDSGFDRTPFKGKQRNRRFQVVDEFVPSLPCETSQEGIKEHDADPSKRSTPAHSLFTGNDSVPCPPGTQRTERKLSLPKKKTKKPVIDNGKSTVISFSNGIDGSQVNSHTGPSMNTVSQTRDLLNGKRVGGLFDNRLASDGYFRKYLSQVNDKPITSLHLQDNDYVRSRDAEPNCLRDFSSSSKSSSGGWLRTGVDIVDFRNNNHNTNRSSFSNLKLRYPPSSTEVADLSRVLQKDASGADRKGKTVMVQEHHGAPRSQSHDRKETTTEEQNNDDIPMEIVELMAKNQYERCLPDKEEDVSNKQPSQETAHKSKNALLIDLNETYDNGISLEDNNTSRPPKPCSSNARREEHFPMGRQQNSHDFFPISQPYVPSPFGIFPPTQENRASSIRFSGHNCQWLGNLPTVGNQNPSPSSFRVLRACDTCQSVPNQYREASHPIWPSSMIPPQSQYKPVSLNINQSTNPGTLSQASNNENTWNLNFVAANGKQKCGPNPEFSFGCKHAAGVSSSSSRPIDNFSSESSIPALHLLSLLDPRLRSTTPADQHGNTKFTKRHFPPANQSKEFIELQTGDSSKSAYSTKQIPFDLYSKRFTQEPSRKSFPITPPIGTSSLSFQNASWSPHHQEKKTKRKDTFAPVYNTHEKPVFASSNDQAKFQLLGASNSMMLPLKFHMTDKEKKQKRKAESCNNNASAGPVKNSSGPIVCSVNRNPADFTIPEPGNVYMLTGEHLKVRKRTTFKKKPAVCKQDAMKQTKKPVCPPTQNA"
binds,–,"TRB3, endogenous (protein, UniProt Q9M2X3 1-295) MGAPKLKWTPEEETALKAGVLKHGTGKWRTILSDPVYSTILKSRSNVDLKDKWRNISVTALWGSRKKAKLALKRTPLSGSRQDDNATAITIVSLANGDVGGQQIDAPSPPAGSCEPPRPSTSVDKIILEAITSLKRPFGPDGKSILMYIEENFKMQPDMKRLVTSRLKYLTNVGTLVKKKHKYRISQNYMAEGEGQRSPQLLLEGNKENTPKPEENGVKNLTKSQVGGEVMIMGMTEKEAAAAAARAVAEAEFAMAEAEEAAREADKAEAEAEAAHIFAKAAMKAVKYRMHSQTR"
no binding,–,"CUPULIFORMIS2 (CP2), endogenous (protein, UniProt P0DO23 1-394) MSSEQREGSQETTTTTVEGNGTIAGQNSHSAAPTTLRATSTMVSCQRLRLNPNNEHRPDSYEDLQLDFPNSVYSSLEKYLPPNMLVSNRDEKIKFMTDIMLRHLPHGERSRAQRHSDYRLKITTNYQPLHKELYTLVPTVCFVPAFLKAINENTEESFRNIISEPSPGVFVFDMLQPSFCEMMLAEIDNFERWVGETKFRIMRPNTMNKYGAVLDDFGLDTMLDKLMEGFIRPISKVFFSDVGGATLDSHHGFVVEYGKDRDVDLGFHVDDSEVTLNVCLGNQFVGGELFFRGTRCEKHVNTATKADETYDYCHIPGQAVLHRGRHRHGARATTCGHRVNMLLWCRSSVFRELKTHHKDFSSWCGECFCEKRDEKVRSIDALRKKLFKPRQTQA"
–,binds,"INCREASE IN BONSAI …ON 1 (IBM1) (protein, UniProt Q9SSE9 1-1027) MDSVEEEGVVRVEEENGRGGLRRHRRVSTKLANYVDPPTDDEEDGGPKRKGKRGGNRAPKKTPKKDEEMQKNEIDEANRVTGLVKEKRAATKILNRKDSIIEVGEASGSMPKEVKGIRIGKRKGEIDGEIPTKPGKKPKTTVDPRIIGYRPDNMCHQCQKSDRIVERCQTCNSKRYCHPCLDTWYPLIAKEDVAKKCMFCSSTCNCRACLRLDTKLKGINSNLIVSEEEKVQASKFILQSLLPHLKGINDEQVAEKEVEAKIYGLKFEEVRPQDAKAFPDERLYCDICKTSIYDLHRNCKSCSFDICLSCCLEIRNGKALACKEDVSWNYINRGLEYEHGQEGKVIEKPANKLDDKLKDKLDGKPDDKPKGKPKGRPKGKPDDKPKGKLKGKQDDKPDDKPDEKPVNTDHMKYPSLWKANEAGIITCCCGAGELVLKRLLPDGWISELVNRVEKTAEAGELLNLPETVLERCPCSNSDRHIDIDSCNLLKAACREGSEDNYLYSPSVWDVQQDDLKHFQHHWVKGEPVIVRNVLEATSGLSWEPMVMHRACRQISHVQHGSLKDVVAVDCLDFCEVKVNLHEFFTGYTDGRYDRMGWPLVLKLKDWPPAKVFKDNLPRHAEEFLCSLPLKHYTHPVNGPLNLAVKLPQNCLKPDMGPKTYVASGFAQELGRGDSVTKLHCDMSDAVNILTHISEVPNMQPGIGNLKKKHAEQDLKELYSSVANKEEMMEILENSRQQVQNVETDDGALWDIFRREDIPKLESYIEKHHKEFRHLYCCPVSQVVHPIHDQNFYLTRYHIMKLKEEYGIEPWTFNQKLGDAVLIPVGCPHQVRNLKSCNKVALDFVSPENVSECLRLTKQYRLLPPNHFAKEDKLGVKKMIVHAVDKALRDLSGEKSPEPEEKKQNMRGPKKGAAKAVAKALKDLSPSEKKSSEAAEEEISNGIVNAIDKGLKDLPPSEEKSSEAKVEISNGIVSAMDKDLEHISSSEKKSTEEEGVKRPNIVRTYERRKKLGSEVTNAYIDRLEMEKM"
binds,–,"FERTILIZATION-… ENDOSPERM (FIE) (protein, UniProt Q9LT47 1-369) MSKITLGNESIVGSLTPSNKKSYKVTNRIQEGKKPLYAVVFNFLDARFFDVFVTAGGNRITLYNCLGDGAISALQSYADEDKEESFYTVSWACGVNGNPYVAAGGVKGIIRVIDVNSETIHKSLVGHGDSVNEIRTQPLKPQLVITASKDESVRLWNVETGICILIFAGAGGHRYEVLSVDFHPSDIYRFASCGMDTTIKIWSMKEFWTYVEKSFTWTDDPSKFPTKFVQFPVFTASIHTNYVDCNRWFGDFILSKSVDNEILLWEPQLKENSPGEGASDVLLRYPVPMCDIWFIKFSCDLHLSSVAIGNQEGKVYVWDLKSCPPVLITKLSHNQSKSVIRQTAMSVDGSTILACCEDGTIWRWDVITK"
binds,–,"TELOMERE REPEAT BINDING 1 (TRB1), endogenous (protein, UniProt Q8VWK4 1-300) MGAPKQKWTQEEESALKSGVIKHGPGKWRTILKDPEFSGVLYLRSNVDLKDKWRNMSVMANGWGSREKSRLAVKRTFSLPKQEENSLALTNSLQSDEENVDATSGLQVSSNPPPRRPNVRLDSLIMEAIATLKEPGGCNKTTIGAYIEDQYHAPPDFKRLLSTKLKYLTSCGKLVKVKRKYRIPNSTPLSSHRRKGLGVFGGKQRTSSLPSPKTDIDEVNFQTRSQIDTEIARMKSMNVHEAAAVAAQAVAEAEAAMAEAEEAAKEAEAAEAEAEAAQAFAEEASKTLKGRNICKMMIRA"

# These are yes or no findings as the source states them, for the method shown. In cells and extracts the contact can be indirect. Here binding means that the protein was enriched with, or labelled near, the bait; the list need not be complete. For some assays here: No binding means not detected with the bait. Tags and fused reporters may be left off the sequences shown.
